PubChem BioAssay AID1053208 – Peter MacCallum Cancer Centre – 2014

Screen: 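Find knock-downs that sensitise mouse osteosarcoma cells to doxorubicin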 (primary screen)
Cells: mouse osteosarcoma cells, early-passage culture from an engineered mouse model of fibroblastic bone tumour
Reagents: siRNA pool against mouse genes, 40 nM
Time to read-out: about 120 h (48 h before drug, then 72 h with drug)
Challenge: doxorubicin 100 nM for 72 h, roughly 30-40% inhibitory dose
Read-out: 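Viability read as ATP luminescence after 72 h of 100 nM doxorubicin or none, duplicate wells averaged, scaled to non-targeting siRNA, then expressed as robust z-scores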
Scale: viability z-score with doxorubicin and doxorubicin viability vs non-targeting: higher = more viable cells under doxorubicin; viability z-score without drug: higher = more viable cells with knock-down alone; z-score of drug to no-drug ratio: higher = less drug sensitisation by knock-down
Call rule: 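Called active if knock-down leaves viability unchanged without drug (z within -2 to 2) but lowers it with doxorubicin (z at or under -2)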
Here is an unselected part of about 17,000 reagents. In the full data, 788 (4.7%) got an active call. 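Calls rest on z-score classes alone; an extra cut-off of viability at most 70% of control was not applied to them.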 Reagents against one gene are numbered here.

| Target gene | reagent no. | combined z-score class | viability z-score with doxorubicin | viability z-score without drug | z-score of drug to no-drug ratio | doxorubicin viability vs non-targeting | activity call |
| --- | --- | --- | --- | --- | --- | --- | --- |
| Cyp2j6 | 1 | no change with or without drug | 0.9 | 0.67 | 0.56 | 1.02 | inactive |
| Adamtsl4 | 1 | no change with or without drug | -1.46 | -0.84 | -0.9 | 0.81 | inactive |
| Rab1b | 1 | no change with or without drug | 0.9 | 1.69 | -0.11 | 1.02 | inactive |
| Nos2 | 1 | no change with or without drug | -0.22 | -0.17 | 0 | 0.92 | inactive |
| Zswim2 | 1 | no change with or without drug | 0.34 | -0.17 | 0.56 | 0.97 | inactive |
| Prl6a1 | 1 | no change with or without drug | 0 | 1.52 | -0.9 | 0.94 | inactive |
| Erv3 | 1 | no change with or without drug | 0.9 | 0.67 | 0.56 | 1.02 | inactive |
| Mrgprd | 1 | no change with or without drug | 0.22 | -0.84 | 1.01 | 0.96 | inactive |
| Nox4 | 1 | no change with or without drug | -0.45 | -0.51 | 0 | 0.9 | inactive |
| Baiap2l1 | 1 | no change with or without drug | 0.67 | 0.51 | 0.45 | 1 | inactive |
| T | 1 | no change with or without drug | 1.91 | 1.52 | 1.01 | 1.11 | inactive |
| Mta2 | 1 | no change with or without drug | 1.01 | -0.51 | 1.57 | 1.03 | inactive |
| Klk8 | 1 | no change with or without drug | 0.34 | 1.85 | -0.67 | 0.97 | inactive |
| Slc25a24 | 1 | no change with or without drug | -0.45 | -0.17 | -0.22 | 0.9 | inactive |
| Eaf1 | 1 | no change with or without drug | 0.22 | 1.18 | -0.45 | 0.96 | inactive |
| Smyd4 | 1 | no change with or without drug | -0.79 | -0.84 | -0.11 | 0.87 | inactive |
| Psme4 | 1 | no change with or without drug | 0 | 1.18 | -0.67 | 0.94 | inactive |
| Dyrk1a | 1 | no change with or without drug | -1.57 | -0.17 | -1.46 | 0.8 | inactive |
| Camkk1 | 1 | no change with or without drug | -0.67 | -1.18 | 0.22 | 0.88 | inactive |
| Sem1 | 1 | low cell count with and without drug | -2.7 | -3.04 | -0.79 | 0.7 | inactive |
| Or4c3d | 1 | no change with or without drug | 0.67 | -0.67 | 1.35 | 1 | inactive |
| Vip | 1 | no change with or without drug | -1.46 | 0.17 | -1.57 | 0.81 | inactive |
| Golga7 | 1 | no change with or without drug | 0.67 | 0.84 | 0.22 | 1 | inactive |
| Iah1 | 1 | no change with or without drug | 0.79 | 0 | 0.9 | 1.01 | inactive |

Reformatted: entries from further up
Klk8 → combined z-score class = no change with or without drug; viability z-score with doxorubicin = 0.34; viability z-score without drug = 1.85; z-score of drug to no-drug ratio = -0.67; doxorubicin viability vs non-targeting = 0.97; activity call = inactive
Slc25a24 → combined z-score class = no change with or without drug; viability z-score with doxorubicin = -0.45; viability z-score without drug = -0.17; z-score of drug to no-drug ratio = -0.22; doxorubicin viability vs non-targeting = 0.9; activity call = inactive
Eaf1 → combined z-score class = no change with or without drug; viability z-score with doxorubicin = 0.22; viability z-score without drug = 1.18; z-score of drug to no-drug ratio = -0.45; doxorubicin viability vs non-targeting = 0.96; activity call = inactive
Smyd4 → combined z-score class = no change with or without drug; viability z-score with doxorubicin = -0.79; viability z-score without drug = -0.84; z-score of drug to no-drug ratio = -0.11; doxorubicin viability vs non-targeting = 0.87; activity call = inactive
Psme4 → combined z-score class = no change with or without drug; viability z-score with doxorubicin = 0; viability z-score without drug = 1.18; z-score of drug to no-drug ratio = -0.67; doxorubicin viability vs non-targeting = 0.94; activity call = inactive
Dyrk1a → combined z-score class = no change with or without drug; viability z-score with doxorubicin = -1.57; viability z-score without drug = -0.17; z-score of drug to no-drug ratio = -1.46; doxorubicin viability vs non-targeting = 0.8; activity call = inactive
Camkk1 → combined z-score class = no change with or without drug; viability z-score with doxorubicin = -0.67; viability z-score without drug = -1.18; z-score of drug to no-drug ratio = 0.22; doxorubicin viability vs non-targeting = 0.88; activity call = inactive

Next results follow:
| Target gene | reagent no. | combined z-score class | viability z-score with doxorubicin | viability z-score without drug | z-score of drug to no-drug ratio | doxorubicin viability vs non-targeting | activity call |
| --- | --- | --- | --- | --- | --- | --- | --- |
| Pithd1 | 1 | no change with or without drug | 0.9 | -1.35 | 2.14 | 1.02 | inactive |
| Kcnj2 | 1 | no change with or without drug | 0 | -0.17 | 0.22 | 0.94 | inactive |
| 2410004B18Rik | 1 | high cell count without drug only | 1.8 | 2.19 | 0.45 | 1.1 | inactive |
| Zkscan2 | 1 | high cell count with doxorubicin only | 2.02 | 0.17 | 2.14 | 1.12 | inactive |
| Mapk1 | 1 | no change with or without drug | 1.69 | 0.51 | 1.46 | 1.09 | inactive |
| Nucb2 | 1 | no change with or without drug | -0.22 | -0.84 | 0.45 | 0.92 | inactive |
| Slc22a26 | 1 | no change with or without drug | 1.46 | -0.51 | 2.02 | 1.07 | inactive |
| Rab31 | 1 | no change with or without drug | 0.67 | 0.34 | 0.56 | 1 | inactive |
| Htatsf1 | 1 | no change with or without drug | 0.79 | -1.52 | 2.14 | 1.01 | inactive |
| Tfam | 1 | no change with or without drug | -1.01 | -1.52 | 0.11 | 0.85 | inactive |
| Shprh | 1 | low cell count with doxorubicin only | -2.36 | -1.52 | -1.46 | 0.73 | active |
| Glrx | 1 | no change with or without drug | 0.45 | -1.35 | 1.69 | 0.98 | inactive |
| Alcam | 1 | no change with or without drug | -1.01 | -0.67 | -0.56 | 0.85 | inactive |
| Rtn4rl2 | 1 | low cell count with doxorubicin only | -2.47 | -1.01 | -1.91 | 0.72 | active |
| 4933409G03Rik | 1 | no change with or without drug | 0.9 | 0.67 | 0.56 | 1.02 | inactive |
| Rhoc | 1 | no change with or without drug | -0.56 | 1.01 | -1.12 | 0.89 | inactive |
| Kifbp | 1 | no change with or without drug | 1.24 | 1.35 | 0.45 | 1.05 | inactive |
| Pfdn5 | 1 | no change with or without drug | 1.46 | 1.18 | 0.79 | 1.07 | inactive |
| Pfdn5 | 2 | high cell count with doxorubicin only | 2.25 | 1.52 | 1.35 | 1.14 | inactive |
| Atad1 | 1 | no change with or without drug | 0.22 | 0.17 | 0.22 | 0.96 | inactive |
| Dtnb | 1 | no change with or without drug | -1.24 | 0.84 | -1.69 | 0.83 | inactive |
| Alg9 | 1 | no change with or without drug | 0.9 | 0.51 | 0.67 | 1.02 | inactive |
| Washc3 | 1 | low cell count with doxorubicin only | -2.02 | -0.84 | -1.57 | 0.76 | active |
| Tmem138 | 1 | no change with or without drug | 0.9 | 1.18 | 0.22 | 1.02 | inactive |
| Exoc6 | 1 | no change with or without drug | 1.24 | 0.51 | 1.01 | 1.05 | inactive |
| Hscb | 1 | no change with or without drug | -0.9 | 1.18 | -1.57 | 0.86 | inactive |
